Laboratory results published in the supplement of paper PMC6411743.
± gives the standard deviation of the averaged measurements. The entries are a selection whose mix differs from that of the whole data set.

The chains behind the UniProt entries cited, without tags or fusion partners. Where a name states a change or a piece, a line headed by the entry shows the natural chain unless it says otherwise.
UniProt O60645: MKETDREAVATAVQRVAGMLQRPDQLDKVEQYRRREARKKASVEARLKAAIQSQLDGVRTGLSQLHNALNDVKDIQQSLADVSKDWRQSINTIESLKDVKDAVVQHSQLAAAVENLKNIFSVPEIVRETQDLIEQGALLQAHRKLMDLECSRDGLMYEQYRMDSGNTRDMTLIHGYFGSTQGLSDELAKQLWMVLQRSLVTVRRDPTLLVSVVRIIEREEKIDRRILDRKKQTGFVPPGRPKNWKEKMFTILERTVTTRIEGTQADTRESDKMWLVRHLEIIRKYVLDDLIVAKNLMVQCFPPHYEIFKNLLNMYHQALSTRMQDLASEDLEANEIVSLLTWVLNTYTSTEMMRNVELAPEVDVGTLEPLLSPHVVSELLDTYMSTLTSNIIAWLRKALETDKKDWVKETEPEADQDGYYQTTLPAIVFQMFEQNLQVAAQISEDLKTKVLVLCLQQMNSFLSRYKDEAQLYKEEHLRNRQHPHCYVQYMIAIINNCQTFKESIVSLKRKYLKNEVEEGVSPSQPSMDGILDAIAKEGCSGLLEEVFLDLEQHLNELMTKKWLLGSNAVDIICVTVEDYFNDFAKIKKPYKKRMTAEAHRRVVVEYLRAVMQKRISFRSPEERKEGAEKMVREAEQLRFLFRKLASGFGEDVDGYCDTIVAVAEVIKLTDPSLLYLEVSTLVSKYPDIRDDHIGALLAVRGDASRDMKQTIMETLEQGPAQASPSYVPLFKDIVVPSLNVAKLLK
UniProt O60493, whole entry: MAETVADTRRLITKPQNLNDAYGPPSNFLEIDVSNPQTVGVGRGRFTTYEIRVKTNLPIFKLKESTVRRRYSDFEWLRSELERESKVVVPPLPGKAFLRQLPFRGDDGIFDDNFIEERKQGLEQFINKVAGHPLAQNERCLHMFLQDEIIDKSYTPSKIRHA
UniProt O95396: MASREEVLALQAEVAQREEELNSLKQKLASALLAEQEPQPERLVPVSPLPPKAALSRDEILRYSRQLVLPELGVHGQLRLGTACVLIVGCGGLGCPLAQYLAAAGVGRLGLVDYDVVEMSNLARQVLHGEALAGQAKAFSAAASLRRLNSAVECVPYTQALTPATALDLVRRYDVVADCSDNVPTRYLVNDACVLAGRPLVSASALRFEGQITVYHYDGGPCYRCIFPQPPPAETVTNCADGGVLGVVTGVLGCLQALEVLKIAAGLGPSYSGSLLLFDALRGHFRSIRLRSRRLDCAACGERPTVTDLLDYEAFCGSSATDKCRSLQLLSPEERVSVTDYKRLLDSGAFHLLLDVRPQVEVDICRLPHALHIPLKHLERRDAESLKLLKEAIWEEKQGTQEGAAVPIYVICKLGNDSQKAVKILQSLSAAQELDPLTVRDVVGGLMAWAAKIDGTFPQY
UniProt O60861: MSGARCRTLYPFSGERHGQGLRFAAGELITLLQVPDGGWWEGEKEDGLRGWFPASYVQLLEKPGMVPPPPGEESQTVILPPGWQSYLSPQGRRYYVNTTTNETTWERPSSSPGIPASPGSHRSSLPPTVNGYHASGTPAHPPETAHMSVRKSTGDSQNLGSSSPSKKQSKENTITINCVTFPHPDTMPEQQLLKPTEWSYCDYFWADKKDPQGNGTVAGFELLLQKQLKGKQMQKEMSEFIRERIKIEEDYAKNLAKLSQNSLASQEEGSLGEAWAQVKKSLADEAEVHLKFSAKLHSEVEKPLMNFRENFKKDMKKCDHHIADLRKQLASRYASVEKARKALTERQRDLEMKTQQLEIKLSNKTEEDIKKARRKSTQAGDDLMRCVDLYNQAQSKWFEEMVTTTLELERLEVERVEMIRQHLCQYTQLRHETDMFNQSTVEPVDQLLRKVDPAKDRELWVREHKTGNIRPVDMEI
UniProt O75379: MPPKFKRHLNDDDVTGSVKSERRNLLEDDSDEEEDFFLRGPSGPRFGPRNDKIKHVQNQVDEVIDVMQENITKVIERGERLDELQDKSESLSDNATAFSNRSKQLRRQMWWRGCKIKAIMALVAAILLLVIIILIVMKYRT
UniProt O75071: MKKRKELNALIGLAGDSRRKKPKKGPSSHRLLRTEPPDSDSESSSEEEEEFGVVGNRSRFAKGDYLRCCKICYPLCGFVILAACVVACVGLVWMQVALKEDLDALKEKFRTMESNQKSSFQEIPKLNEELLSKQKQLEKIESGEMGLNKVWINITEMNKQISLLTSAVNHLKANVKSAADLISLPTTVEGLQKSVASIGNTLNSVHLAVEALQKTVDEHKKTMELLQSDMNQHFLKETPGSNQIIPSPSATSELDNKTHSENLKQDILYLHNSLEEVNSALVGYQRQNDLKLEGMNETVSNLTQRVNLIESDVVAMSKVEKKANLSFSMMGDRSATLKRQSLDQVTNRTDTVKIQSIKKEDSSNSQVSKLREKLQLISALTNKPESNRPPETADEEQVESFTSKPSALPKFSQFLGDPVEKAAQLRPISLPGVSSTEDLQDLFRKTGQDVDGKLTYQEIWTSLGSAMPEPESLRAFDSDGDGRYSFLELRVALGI
UniProt O95671: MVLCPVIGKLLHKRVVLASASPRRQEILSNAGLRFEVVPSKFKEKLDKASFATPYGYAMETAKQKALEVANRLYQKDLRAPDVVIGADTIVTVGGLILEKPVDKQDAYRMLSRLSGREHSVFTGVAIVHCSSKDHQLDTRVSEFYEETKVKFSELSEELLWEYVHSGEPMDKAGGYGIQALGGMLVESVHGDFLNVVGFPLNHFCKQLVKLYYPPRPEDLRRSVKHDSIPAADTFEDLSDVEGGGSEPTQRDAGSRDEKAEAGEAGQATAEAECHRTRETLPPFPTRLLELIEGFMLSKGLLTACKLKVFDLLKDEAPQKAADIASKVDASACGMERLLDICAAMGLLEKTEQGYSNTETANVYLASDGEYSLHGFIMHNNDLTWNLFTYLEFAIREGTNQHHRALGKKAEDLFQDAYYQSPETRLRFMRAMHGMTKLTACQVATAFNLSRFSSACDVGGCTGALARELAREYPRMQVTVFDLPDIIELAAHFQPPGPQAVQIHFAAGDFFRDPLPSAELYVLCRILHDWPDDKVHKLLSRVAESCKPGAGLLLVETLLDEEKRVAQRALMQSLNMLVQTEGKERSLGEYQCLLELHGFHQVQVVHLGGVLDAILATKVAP
UniProt O95236: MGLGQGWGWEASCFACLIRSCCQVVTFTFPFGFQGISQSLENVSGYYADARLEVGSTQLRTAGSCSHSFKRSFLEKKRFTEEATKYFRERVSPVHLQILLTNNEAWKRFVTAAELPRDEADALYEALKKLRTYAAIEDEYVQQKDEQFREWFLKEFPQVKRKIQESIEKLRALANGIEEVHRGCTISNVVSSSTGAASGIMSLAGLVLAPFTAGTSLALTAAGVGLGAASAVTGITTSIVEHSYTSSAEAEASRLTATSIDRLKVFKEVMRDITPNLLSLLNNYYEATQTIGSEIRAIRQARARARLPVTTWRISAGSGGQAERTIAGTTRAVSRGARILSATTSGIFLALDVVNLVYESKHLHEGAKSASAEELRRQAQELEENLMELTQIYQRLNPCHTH
UniProt O95104: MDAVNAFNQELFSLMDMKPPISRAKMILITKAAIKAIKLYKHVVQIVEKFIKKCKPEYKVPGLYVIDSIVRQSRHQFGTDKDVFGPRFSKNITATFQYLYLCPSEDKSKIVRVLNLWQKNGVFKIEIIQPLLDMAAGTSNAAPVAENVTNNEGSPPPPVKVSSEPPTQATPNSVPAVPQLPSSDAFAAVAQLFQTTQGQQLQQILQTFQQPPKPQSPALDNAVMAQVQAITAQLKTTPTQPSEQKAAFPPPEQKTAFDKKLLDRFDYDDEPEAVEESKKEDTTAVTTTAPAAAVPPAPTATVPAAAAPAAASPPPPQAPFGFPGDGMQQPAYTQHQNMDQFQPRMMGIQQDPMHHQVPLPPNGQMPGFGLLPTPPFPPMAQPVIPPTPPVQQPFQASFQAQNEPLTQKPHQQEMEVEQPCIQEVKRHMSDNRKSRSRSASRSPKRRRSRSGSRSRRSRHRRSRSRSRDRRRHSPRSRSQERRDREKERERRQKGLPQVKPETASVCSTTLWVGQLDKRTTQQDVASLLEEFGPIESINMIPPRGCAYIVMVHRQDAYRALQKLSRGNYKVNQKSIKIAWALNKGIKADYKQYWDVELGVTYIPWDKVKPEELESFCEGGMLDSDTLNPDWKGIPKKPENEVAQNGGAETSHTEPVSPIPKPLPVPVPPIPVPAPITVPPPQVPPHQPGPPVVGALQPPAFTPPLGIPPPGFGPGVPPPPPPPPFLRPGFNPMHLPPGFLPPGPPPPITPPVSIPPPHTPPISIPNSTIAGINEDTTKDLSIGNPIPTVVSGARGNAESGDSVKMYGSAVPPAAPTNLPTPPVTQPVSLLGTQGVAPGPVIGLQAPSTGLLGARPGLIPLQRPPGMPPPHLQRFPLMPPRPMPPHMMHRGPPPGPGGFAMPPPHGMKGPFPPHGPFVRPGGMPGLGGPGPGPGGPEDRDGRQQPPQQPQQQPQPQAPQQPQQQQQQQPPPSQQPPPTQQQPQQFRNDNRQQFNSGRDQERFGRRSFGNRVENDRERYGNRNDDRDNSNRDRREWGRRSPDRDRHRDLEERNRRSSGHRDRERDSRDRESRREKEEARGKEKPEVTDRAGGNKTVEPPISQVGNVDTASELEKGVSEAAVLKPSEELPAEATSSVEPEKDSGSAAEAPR
UniProt O60502: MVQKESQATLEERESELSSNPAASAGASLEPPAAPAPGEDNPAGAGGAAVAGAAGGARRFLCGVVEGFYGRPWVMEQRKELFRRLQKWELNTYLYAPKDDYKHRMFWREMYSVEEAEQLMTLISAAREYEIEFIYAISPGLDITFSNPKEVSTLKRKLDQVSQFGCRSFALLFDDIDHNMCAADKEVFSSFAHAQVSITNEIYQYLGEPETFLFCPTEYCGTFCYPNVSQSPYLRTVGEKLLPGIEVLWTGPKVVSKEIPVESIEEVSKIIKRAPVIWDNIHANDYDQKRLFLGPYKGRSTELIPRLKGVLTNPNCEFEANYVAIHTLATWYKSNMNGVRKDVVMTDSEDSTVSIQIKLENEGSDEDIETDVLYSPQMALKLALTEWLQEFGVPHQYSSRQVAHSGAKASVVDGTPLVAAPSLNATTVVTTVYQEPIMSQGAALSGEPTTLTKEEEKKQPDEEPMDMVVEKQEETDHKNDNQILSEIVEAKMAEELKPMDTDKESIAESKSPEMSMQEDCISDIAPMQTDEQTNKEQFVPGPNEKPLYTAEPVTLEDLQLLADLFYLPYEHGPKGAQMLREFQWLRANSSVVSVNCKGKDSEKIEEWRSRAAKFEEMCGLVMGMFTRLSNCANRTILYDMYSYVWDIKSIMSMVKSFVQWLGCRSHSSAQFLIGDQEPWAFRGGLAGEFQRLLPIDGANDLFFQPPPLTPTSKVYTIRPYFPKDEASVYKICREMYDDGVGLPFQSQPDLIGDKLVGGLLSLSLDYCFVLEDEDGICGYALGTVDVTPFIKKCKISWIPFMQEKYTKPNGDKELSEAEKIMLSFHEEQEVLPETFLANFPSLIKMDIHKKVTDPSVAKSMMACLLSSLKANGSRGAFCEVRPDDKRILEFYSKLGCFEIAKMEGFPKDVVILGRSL
UniProt O95251, whole entry: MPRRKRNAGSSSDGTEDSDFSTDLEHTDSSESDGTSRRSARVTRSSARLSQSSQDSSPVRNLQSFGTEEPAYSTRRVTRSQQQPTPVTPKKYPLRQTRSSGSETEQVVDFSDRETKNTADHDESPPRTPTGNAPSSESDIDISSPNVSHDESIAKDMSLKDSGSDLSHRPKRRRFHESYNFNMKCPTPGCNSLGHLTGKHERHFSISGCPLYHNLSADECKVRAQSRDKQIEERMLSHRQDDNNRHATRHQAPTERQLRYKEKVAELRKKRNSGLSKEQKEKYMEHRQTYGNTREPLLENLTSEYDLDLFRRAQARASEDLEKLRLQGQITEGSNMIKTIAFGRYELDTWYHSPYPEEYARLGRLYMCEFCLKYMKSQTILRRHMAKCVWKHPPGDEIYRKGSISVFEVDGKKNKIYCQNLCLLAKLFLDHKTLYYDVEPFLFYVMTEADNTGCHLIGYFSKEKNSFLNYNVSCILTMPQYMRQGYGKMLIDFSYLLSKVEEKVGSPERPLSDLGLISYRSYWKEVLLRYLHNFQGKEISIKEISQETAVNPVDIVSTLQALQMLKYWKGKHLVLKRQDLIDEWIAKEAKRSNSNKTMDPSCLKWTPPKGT

Compound: Nc1ncnc2c1ncn2[C@@H]1O[C@H](COP(=O)(O)OP(=O)(O)OP(=O)(O)O)[C@@H](O)[C@H]1O [adenosine triphosphate]
Assay: NP40-soluble protein abundance relative to vehicle (solubility fold change) (ratio); higher = more soluble protein in presence of ATP
Summary of the method: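 Crude Jurkat lysate, prepared by Dounce homogenisation, was exposed to eight concentrations from 0.1 to 10 mM for 10 min at room temperature and then 3 min at 37 °C. Solubilisation used 0.8% NP40 with benzonase for 60 min at 4 °C, followed by ultracentrifugation and TMT labelling of the supernatant for LC-MS/MS. After vsn normalisation of intensities, each value is the fold change against the detergent-processed vehicle within each replicate, across three independent experiments.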

Target	NP40-soluble protein abundance (concentration: 1mM)	NP40-soluble protein abundance (concentration: 2mM)	NP40-soluble protein abundance (concentration: 4mM)	NP40-soluble protein abundance (concentration: 6mM)	NP40-soluble protein abundance (concentration: 8mM)	NP40-soluble protein abundance (concentration: 10mM)
UniProt O60645 and related entries	1.04 ± 0.049	1.03 ± 0.059	1.05 ± 0.052	1.01 ± 0.029	1.05 ± 0.04	1.03 ± 0.046
LETM1 (UniProt O95202)	0.961 ± 0.058	0.941 ± 0.021	0.939 ± 0.022	0.9753 ± 0.0044	0.934 ± 0.025	0.917 ± 0.03
UniProt O95628 and related entries	0.952 ± 0.052	0.979 ± 0.014	0.972 ± 0.032	0.939 ± 0.055	0.923 ± 0.017	0.961 ± 0.019
FARS2 (UniProt O95363)	0.986 ± 0.047	1.02 ± 0.046	1.01 ± 0.044	0.965 ± 0.092	0.993 ± 0.052	0.967 ± 0.032
SNX3 (UniProt O60493)	0.959 ± 0.067	0.951 ± 0.046	0.91 ± 0.044	0.917 ± 0.039	0.935 ± 0.026	0.916 ± 0.046
UniProt O94903	0.982 ± 0.052	0.991 ± 0.011	0.967 ± 0.034	1.03 ± 0.05	0.968 ± 0.022	0.975 ± 0.024
UniProt O95248-4|G5E933 and related entries	1.06 ± 0.031	1.05 ± 0.018	1.03 ± 0.019	1.03 ± 0.05	1.09 ± 0.036	1.06 ± 0.032
STAMBP (UniProt O95630)	0.977 ± 0.032	0.976 ± 0.032	0.94 ± 0.03	0.984 ± 0.043	0.948 ± 0.04	0.94 ± 0.018
IPO7 (UniProt O95373)	0.928 ± 0.023	0.964 ± 0.025	0.943 ± 0.059	0.898 ± 0.031	0.904 ± 0.052	0.949 ± 0.041
UniProt O75787 and related entries	0.97 ± 0.013	1.01 ± 0.037	1.04 ± 0.08	0.943 ± 0.039	0.989 ± 0.091	0.997 ± 0.092
UniProt O60524 and related entries	0.943 ± 0.027	0.969 ± 0.032	1.03 ± 0.026	1.09 ± 0.066	1.11 ± 0.064	1.18 ± 0.036
MOCS3 (UniProt O95396)	0.991 ± 0.025	0.996 ± 0.017	0.973 ± 0.017	0.974 ± 0.067	0.9597 ± 0.0041	0.932 ± 0.0097
UniProt O60861	0.987 ± 0.05	0.9947 ± 0.0049	0.973 ± 0.034	1.02 ± 0.036	0.9706 ± 0.0053	0.964 ± 0.027
SLU7 (UniProt O95391)	0.886 ± 0.048	0.895 ± 0.043	0.903 ± 0.061	0.988 ± 0.16	1.05 ± 0.069	1.12 ± 0.073
KIN (UniProt O60870)	1.03 ± 0.053	1.03 ± 0.071	0.989 ± 0.073	1.01 ± 0.065	0.992 ± 0.054	1 ± 0.08
NMT2 (UniProt O60551)	1.08 ± 0.041	1.13 ± 0.043	1.15 ± 0.078	1.15 ± 0.063	1.15 ± 0.034	1.2 ± 0.039
PLOD3 (UniProt O60568)	1.02 ± 0.061	0.994 ± 0.039	1.04 ± 0.046	1.01 ± 0.058	1.07 ± 0.028	1.08 ± 0.072
SMNDC1 (UniProt O75940)	1.08 ± 0.045	1.12 ± 0.013	1.09 ± 0.011	1.22 ± 0.035	1.13 ± 0.05	1.17 ± 0.042
HERC2 (UniProt O95714)	0.963 ± 0.13	0.979 ± 0.099	1.02 ± 0.13	0.981 ± 0.2	1.05 ± 0.058	1.04 ± 0.11
UniProt O75947	0.934 ± 0.092	0.914 ± 0.061	0.906 ± 0.02	0.954 ± 0.14	0.889 ± 0.014	0.839 ± 0.061

Target	NP40-soluble protein abundance (concentration: 1mM)	NP40-soluble protein abundance (concentration: 2mM)	NP40-soluble protein abundance (concentration: 4mM)	NP40-soluble protein abundance (concentration: 6mM)	NP40-soluble protein abundance (concentration: 8mM)	NP40-soluble protein abundance (concentration: 10mM)
UniProt O75379 and related entries	1.04 ± 0.23	1.04 ± 0.21	1.08 ± 0.14	1.08 ± 0.11	1.05 ± 0.11	1.01 ± 0.093
UniProt O75175 and related entries	1.15 ± 0.04	1.2 ± 0.033	1.23 ± 0.042	1.32 ± 0.1	1.3 ± 0.057	1.332 ± 0.012
UniProt O75925 and related entries	0.835 ± 0.057	0.941 ± 0.16	0.967 ± 0.092	0.838 ± 0.03	0.894 ± 0.062	1.14 ± 0.085
UniProt O75822 and related entries	0.745 ± 0.1	0.708 ± 0.1	0.705 ± 0.086	0.868 ± 0.12	0.907 ± 0.053	0.992 ± 0.047
PHF2 (UniProt O75151)	1.02 ± 0.1	1.02 ± 0.11	1.04 ± 0.12	1.06 ± 0.16	1.06 ± 0.13	1.06 ± 0.17
VPS26A (UniProt O75436)	1.1 ± 0.16	1.01 ± 0.13	1.01 ± 0.12	0.96 ± 0.15	1.05 ± 0.1	0.995 ± 0.087
UniProt O75071	0.902 ± 0.13	1.264 ± 0.0072	0.947 ± 0.074	0.983 ± 0.19	0.858 ± 0.11	0.8836 ± 0.0029
UniProt O95671 and related entries	1.01 ± 0.072	1.01 ± 0.06	1 ± 0.072	0.99 ± 0.086	0.984 ± 0.062	0.967 ± 0.067
UniProt O95793 and related entries	1.02 ± 0.059	1.07 ± 0.036	1.15 ± 0.02	1.23 ± 0.07	1.24 ± 0.052	1.34 ± 0.079
SS18L1 (UniProt O75177)	1.06 ± 0.11	1.08 ± 0.067	1.08 ± 0.1	1.11 ± 0.18	1.05 ± 0.11	1.08 ± 0.027
POLR1A (UniProt O95602)	1.1 ± 0.043	1.12 ± 0.016	1.18 ± 0.028	1.17 ± 0.022	1.25 ± 0.014	1.25 ± 0.041
DENND4B (UniProt O75064)	0.912 ± 0.036	0.999 ± 0.034	0.977 ± 0.022	0.997 ± 0.01	0.942 ± 0.021	0.99 ± 0.058
IPO13 (UniProt O94829)	1.05 ± 0.18	0.99 ± 0.094	1.01 ± 0.17	1.03 ± 0.19	0.957 ± 0.12	1.03 ± 0.18
UniProt O94768	1.15 ± 0.045	1.14 ± 0.052	1.14 ± 0.084	1.19 ± 0.053	1.15 ± 0.042	1.12 ± 0.048
UniProt O75648 and related entries	1.06 ± 0.16	0.996 ± 0.11	1.01 ± 0.11	0.942 ± 0.16	1 ± 0.098	1.08 ± 0.16
LYPLA2 (UniProt O95372)	0.943 ± 0.022	0.968 ± 0.036	0.952 ± 0.014	0.928 ± 0.029	0.942 ± 0.059	0.898 ± 0.056
PRKRA (UniProt O75569)	0.951 ± 0.066	0.952 ± 0.073	1.01 ± 0.043	1.08 ± 0.072	1.09 ± 0.063	1.16 ± 0.12
NADK (UniProt O95544)	0.934 ± 0.011	0.922 ± 0.082	0.95 ± 0.018	0.916 ± 0.035	0.91 ± 0.041	0.917 ± 0.044
UniProt O95236 and related entries	0.894 ± 0.017	0.908 ± 0.037	0.936 ± 0.034	0.882 ± 0.022	0.889 ± 0.035	0.902 ± 0.03
UniProt O75879 and related entries	0.9649 ± 0.0093	0.9749 ± 0.0054	0.974 ± 0.041	0.975 ± 0.026	0.948 ± 0.011	0.971 ± 0.029

Some entries already given, reduced to NP40-soluble protein abundance (concentration: 4mM).
Target,NP40-soluble protein abundance (concentration: 4mM)
PHF2 (UniProt O75151),1.04 ± 0.12
VPS26A (UniProt O75436),1.01 ± 0.12
UniProt O75071,0.947 ± 0.074
UniProt O95671 and related entries,1 ± 0.072

Remaining list, next part:

Target	NP40-soluble protein abundance (concentration: 1mM)	NP40-soluble protein abundance (concentration: 2mM)	NP40-soluble protein abundance (concentration: 4mM)	NP40-soluble protein abundance (concentration: 6mM)	NP40-soluble protein abundance (concentration: 8mM)	NP40-soluble protein abundance (concentration: 10mM)
UniProt O75208 and related entries	0.876 ± 0.062	0.88 ± 0.029	0.859 ± 0.061	0.881 ± 0.045	0.838 ± 0.022	0.813 ± 0.13
HEXIM1 (UniProt O94992)	0.971 ± 0.021	0.993 ± 0.017	1.01 ± 0.029	1.1 ± 0.021	1.1 ± 0.018	1.12 ± 0.045
UniProt O75306 and related entries	1.08 ± 0.12	1.02 ± 0.063	1.03 ± 0.065	0.966 ± 0.067	1.04 ± 0.04	1.01 ± 0.052
HUS1 (UniProt O60921)	1.03 ± 0.032	0.978 ± 0.039	0.973 ± 0.022	0.949 ± 0.049	0.985 ± 0.036	0.986 ± 0.062
UniProt O75865 and related entries	0.956 ± 0.086	1.01 ± 0.083	0.947 ± 0.069	0.884 ± 0.092	0.92 ± 0.015	0.931 ± 0.042
UniProt O95104 and related entries	1.43 ± 0.097	1.46 ± 0.063	1.45 ± 0.031	1.49 ± 0.028	1.44 ± 0.059	1.45 ± 0.028
WFS1 (UniProt O76024)	1.14 ± 0.24	0.985 ± 0.12	1.06 ± 0.14	1.03 ± 0.057	1.07 ± 0.15	1.09 ± 0.16
UniProt O75367 and related entries	0.852 ± 0.075	0.861 ± 0.023	0.883 ± 0.04	0.96 ± 0.025	0.995 ± 0.036	1.16 ± 0.08
UniProt O95429 and related entries	1.04 ± 0.25	0.997 ± 0.19	1.07 ± 0.28	1.05 ± 0.26	1 ± 0.26	0.944 ± 0.2
UniProt O75143 and related entries	1.02 ± 0.032	1.02 ± 0.042	0.978 ± 0.025	1 ± 0.018	1.01 ± 0.043	0.99 ± 0.046
UniProt O75600 and related entries	1.03 ± 0.087	1 ± 0.08	0.99 ± 0.074	0.983 ± 0.075	1.01 ± 0.057	0.976 ± 0.1
UniProt O76095 and related entries	0.872 ± 0.065	0.883 ± 0.044	0.779 ± 0.027	0.871 ± 0.095	0.873 ± 0.042	0.832 ± 0.025
UniProt O60502 and related entries	0.969 ± 0.012	0.964 ± 0.012	0.952 ± 0.014	0.949 ± 0.019	0.95 ± 0.021	0.94 ± 0.019
DDHD2 (UniProt O94830)	1.04 ± 0.036	1.04 ± 0.039	1.02 ± 0.028	0.969 ± 0.055	0.996 ± 0.039	0.9892 ± 0.0087
UniProt O75381 and related entries	0.922 ± 0.046	0.87 ± 0.03	0.853 ± 0.03	0.821 ± 0.053	0.84 ± 0.012	0.757 ± 0.066
UniProt O75157 and related entries	0.889 ± 0.11	0.915 ± 0.031	0.914 ± 0.057	0.925 ± 0.078	0.851 ± 0.058	0.87 ± 0.046
UniProt O60488 and related entries	1.07 ± 0.094	1.07 ± 0.078	1.06 ± 0.1	0.99 ± 0.14	1.08 ± 0.07	1.05 ± 0.039
WDHD1 (UniProt O75717)	0.957 ± 0.03	0.954 ± 0.023	0.921 ± 0.01	0.959 ± 0.034	0.932 ± 0.013	0.926 ± 0.023
ZBTB7A (UniProt O95365)	1.03 ± 0.042	1.09 ± 0.012	1.11 ± 0.15	1.1 ± 0.14	1.03 ± 0.17	1.07 ± 0.18
UniProt O95251 and related entries	1.2 ± 0.014	1.2 ± 0.042	1.25 ± 0.061	1.2 ± 0.11	1.19 ± 0.089	1.32 ± 0.16

Two entries from above, as comma-separated lines.
Target,NP40-soluble protein abundance (concentration: 1mM),NP40-soluble protein abundance (concentration: 2mM),NP40-soluble protein abundance (concentration: 4mM),NP40-soluble protein abundance (concentration: 6mM),NP40-soluble protein abundance (concentration: 8mM),NP40-soluble protein abundance (concentration: 10mM)
WFS1 (UniProt O76024),1.14 ± 0.24,0.985 ± 0.12,1.06 ± 0.14,1.03 ± 0.057,1.07 ± 0.15,1.09 ± 0.16
UniProt O75157 and related entries,0.889 ± 0.11,0.915 ± 0.031,0.914 ± 0.057,0.925 ± 0.078,0.851 ± 0.058,0.87 ± 0.046
